The record followed here is patent US20230203142A1, “TREATMENT OF METABOLIC DISORDERS THROUGH THE TARGETING OF A NOVEL CIRCULATING HORMONE COMPLEX” (The President and Fellows of Harvard College, priority 2020, published 2023).

In the experiment the target is GST-tagged NDPK (GST-NDPK). Briefly: immunoprecipitation of GST-NDPK, Western blot. Background: A western blot detects proteins with antibodies after separation by electrophoresis.

No constants are given. Whether binding was seen depends on the method and setting. A result given as binding can be weak or reduced; the word gives no strength.

B1: recombinant human FABP4 (fatty acid binding protein 4) (protein)
chain: CDAFVGTWKLVSSENFDDYMKEVGVGFATRKVAGMAKPNMIISVNGDVITIKSESTFKNTEISFILGQEFDEVTADDRKVKSTITLDGGVLVHVQKWDGKSTTIKRKREDDKLVVECVMKGVTSTRVYERA
As for B1, the binding entry is recorded as “binds”.
